From US20230372551A1 (priority 2020, published 2023)

Assay: general procedure: Fmoc solid-phase peptide synthesis
Conditions: conjugation step, analytical C18 RP-HPLC

Ac-(D-Ala)-(D-Lys[X^4])-(D-Asp)-(D-Asp)-(D-Gln)-(D-Asn)-(D-Pro)-(D-Trp)-(D-Arg)-(D-Ala)-(D-Tyr)-(D-Leu)-(D-Asp)-(D-Leu)-(D-Leu)-(D-Phe)-(D-Pro)-(D-Thr)-(D-Asp)-(D-Thr)-(D-Leu)-(D-Leu)- (D-Leu)-(D-Asp)-(D-Leu)-(D-Leu)-(D-Trp)-(D-Ala)
final HPLC purity: >95%
